Experimental data: patent US20090012148A1, “REDUCING CELLULAR CHOLESTEROL LEVELS AND/OR TREATING OR PREVENTING PHOSPHOLIPIDOSIS” (priority 2005, published 2009)
Some results were stated once for a whole list of compounds, not compound by compound. At least one structure is not confirmed: it was looked up by name or label, or the drawing left a doubt. Some compounds share one range, which may span the group rather than tell each member.

Assays:
CT60 cells [1] = assay: Toxicity assay by cell count (Hoechst 33258); assay type: cell-based, Chinese hamster; details: 10 μM, 24 h; CT60 and CT43 cells not told apart
Protocol: To measure toxicity, we treated CT60 and CT43 cells with compounds at 5, 10 and 20 μM for 24 h. The cell number per well was compared to control cells treated with DMSO (FIG. 7). […] Compound 1-a-14 did cause a 50% reduction in cell number at 10 μM for CT60 and an 80% reduction for CT43 cells. Compounds 1-a-4, 5, 6, 8 and 13 were partially toxic as indicated by 20-30% reduction in cell number after 24 h at 10 μM. Procedure Using Cell Count Assay: Compounds were added to CT60 and CT43 cells plated in 384 well plates at 0 (DMSO solvent control), 5, 10 and 20 μM concentrations in quadruplicate using methods similar to the dose dependence assay, except that the cells were stained with Hoechst 33258 nuclear stain. The final DMSO concentration in each well was 0.2%. For the control cells an equivalent amount of DMSO was added to the cells. The cells were incubated for 24, 48 and 72 h. After each time period, cells were washed and then fixed with 1.5% PFA. After washing the cells three times with PBS, the nuclei of the cells were stained using 5 μg/ml Hoechst 33258 (25 mg/ml stock solution in DMSO) in PBS for 45 m at room temperature. Finally, cells were washed three times with PBS, and images were obtained using a Nikon 4× Plan Apo 0.2NA objective. For Hoechst imaging we used the same filter set as for filipin. We collected one 520×696 pixel image per well at 12 intensity bits per pixel. Each pixel is 3.125 by 3.125 μm in […] the object. Cells were counted by defining the standard area of single nuclei (˜200 μm^2) interactively for each plate using the Integrated Morphometry Analysis function of MetaMorph. The number of standard areas per object above a threshold was determined, and the total number of standard areas per image was used as the cell count. The percent reduction in the number of cells compared to DMSO control was calculated for each concentration and time.

CT60 cells [2] = assay: Filipin binding assay, LSO compartment ratio (dose dependence, time course); assay type: cell-based, Chinese hamster; details: versus solvent control
Description: Although the intensity assay was potentially useful, it seemed that additional information in the images could provide better discrimination of wild type vs. NPC cells. For this purpose, we took advantage of the spatial distribution of the filipin labeling of the LSOs, which cluster near the nucleus (FIG. 1B). We applied the second, higher threshold for this bright cluster. We then measured the total fluorescence intensity in the selected LSO objects (high threshold, FIG. 2C) divided by the total number of pixels in cells (low threshold, FIG. 2D).
Image analysis: Images of filipin-stained cells were analyzed using Metamorph Discovery-1 image analysis software. Two different image analysis assays were developed: (1) Average filipin intensity assay and (2) LSO compartment ratio assay. First, to correct for shading an image was created by averaging all of the images from a plate and smoothing the averaged image using a low pass filter. Then each pixel in an image was multiplied by the average intensity of the shading image, and the resulting pixel intensities were divided by the shading image on a pixel-by-pixel basis. Background was subtracted from each shading-corrected image by determining the 5th percentile intensity value of the image and subtracting this value from each pixel in the image. At the plating density used, all fields had at least 5% of the imaged areas that was cell-free. Next, two different thresholds were applied to the filipin images. For the first, a low threshold was set to include all areas occupied by cells. […] For the Average filipin intensity assay, using the low threshold alone, we measured total filipin intensity above the low threshold divided by the number of pixels above the lower threshold for each field. […] For the LSO compartment ratio we measured the total filipin intensity selectively in the region above the higher threshold divided by the number of pixels in the lower threshold. […]
The effects of the compounds were determined at 1.11, 3.33 and 10 μM concentrations after 4, 20 and 48 h using methods similar to the dose dependence. […]

SMILES | reduction in cell number (CT60 cells [1]) | reduction in the LSO compartment assay at 370 nM (CT60 cells [2])
COc1ccccc1NN=C1C(=O)N(c2nc(-c3ccc(Cl)cc3)cs2)N=C1C [Compound 1-a-4] | 20-30% | –
O=C1C(=Cc2ccc(-c3ccc(Cl)c(Cl)c3)o2)C=C(c2ccccc2)N1c1ccc(O)cc1 [Compound 1-a-5] | 20-30% | –
O=C1C(=Cc2ccc(-c3ccc(Cl)c(Cl)c3)o2)C=C(c2ccccc2)N1c1ccccc1O [Compound 1-a-6] | 20-30% | –
O=C1C(=Cc2ccc(-c3ccc(Br)cc3)o2)C=C(c2ccccc2)N1c1ccc(O)cc1 [Compound 1-a-8] | 20-30% | –
O=C(O)c1ccc(N2C(=O)C(=Cc3ccc(-c4ccc(Br)cc4)o3)C=C2c2ccccc2)cc1 [Compound 1-a-13] | 20-30% | –
COc1ccccc1Nc1nc(Nc2ccccc2OC)nc(Nc2ccccc2OC)n1 [Compound 2-a-9] | – | > 3 SD
FC(F)(F)COc1nc(NN=Cc2cccc(I)c2)nc(N(c2ccccc2)c2ccccc2)n1 [Compound 2-a-12] | – | > 3 SD
O=[N+]([O-])c1cccc(C=NNc2nc(Nc3cccc4ccccc34)nc(N(c3ccccc3)c3ccccc3)n2)c1 [Compound 2-a-13] | – | > 3 SD
